Results deposited as PubChem BioAssay AID1508597 (Cure First, 2020)
Aim: 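Survival screen with siRNA in ovarian cancer cells derived from patients, with or without rucaparib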 (primary screen). Cell system: human ovarian carcinoma lines grown from tumours: OCI-P5x (papillary serous) and OCI-C5x (clear cell). Knock-down reagent: siRNA pool against human genes, 1.25 pmol siRNA per well. Timing: 72 h or 96 h, depending on the cell culture. Treatment: rucaparib 20 µM (about IC30) or vehicle, present until read-out. Measured: 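ATP luminescence measured at 72 or 96 h according to the culture, then normalised and expressed as percent viability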. Scale: viability, normalised: higher = more viable cells remaining. Rule for the call: 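a well counts as a hit if its normalised viability is under 80 percent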. Calls: active = viability under 80%; inactive = viability 80% or more.
Shown is one part, drawn at random, of about 2,100 reagents tested. 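Calls flag viability under 80% in either arm, not effects specific to rucaparib; the reference for percent is not stated.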 No sequences are given here. Not given: the 100% reference.

The first 2 records, ahead of the listing:
| target gene | rucaparib or vehicle | cell line | technical replicate | viability, normalised (%) | activity call |
| --- | --- | --- | --- | --- | --- |
| PRDM4 (PR/SET domain 4) | Rucaparib | OCI-C5x (clear cell) | 1 | 60.8 | active |
| PRDM4 (PR/SET domain 4) | Rucaparib | OCI-C5x (clear cell) | 2 | 57.1 | active |

Main list, from the first entry:
| target gene | rucaparib or vehicle | cell line | technical replicate | viability, normalised (%) | activity call |
| --- | --- | --- | --- | --- | --- |
| PRDM4 (PR/SET domain 4) | Rucaparib | OCI-C5x (clear cell) | 1 | 60.8 | active |
| PRDM4 (PR/SET domain 4) | Rucaparib | OCI-C5x (clear cell) | 2 | 57.1 | active |
| PRDM4 (PR/SET domain 4) | Rucaparib | OCI-C5x (clear cell) | 3 | 51.4 | active |
| PRDM4 (PR/SET domain 4) | Rucaparib | OCI-P5x (serous) | 1 | 30.9 | active |
| PRDM4 (PR/SET domain 4) | Rucaparib | OCI-P5x (serous) | 2 | 51.5 | active |
| PRDM4 (PR/SET domain 4) | Rucaparib | OCI-P5x (serous) | 3 | 48.7 | active |
| PRDM4 (PR/SET domain 4) | Vehicle | OCI-C5x (clear cell) | 1 | 38.7 | active |
| PRDM4 (PR/SET domain 4) | Vehicle | OCI-C5x (clear cell) | 2 | 49.2 | active |
| PRDM4 (PR/SET domain 4) | Vehicle | OCI-C5x (clear cell) | 3 | 59.1 | active |
| PRDM4 (PR/SET domain 4) | Vehicle | OCI-P5x (serous) | 1 | 73.5 | active |
| PRDM4 (PR/SET domain 4) | Vehicle | OCI-P5x (serous) | 2 | 85.6 | inactive |
| PRDM4 (PR/SET domain 4) | Vehicle | OCI-P5x (serous) | 3 | 82.1 | inactive |
| ERCC8 (ERCC excision repair 8, CSA ubiquitin ligase complex subunit) | Rucaparib | OCI-C5x (clear cell) | 1 | 58.9 | active |
| ERCC8 (ERCC excision repair 8, CSA ubiquitin ligase complex subunit) | Rucaparib | OCI-C5x (clear cell) | 2 | 64.8 | active |
| ERCC8 (ERCC excision repair 8, CSA ubiquitin ligase complex subunit) | Rucaparib | OCI-C5x (clear cell) | 3 | 54.2 | active |
| ERCC8 (ERCC excision repair 8, CSA ubiquitin ligase complex subunit) | Rucaparib | OCI-P5x (serous) | 1 | 76.5 | active |
| ERCC8 (ERCC excision repair 8, CSA ubiquitin ligase complex subunit) | Rucaparib | OCI-P5x (serous) | 2 | 96.7 | inactive |
| ERCC8 (ERCC excision repair 8, CSA ubiquitin ligase complex subunit) | Rucaparib | OCI-P5x (serous) | 3 | 79.2 | active |
| ERCC8 (ERCC excision repair 8, CSA ubiquitin ligase complex subunit) | Vehicle | OCI-C5x (clear cell) | 1 | 64.6 | active |
| ERCC8 (ERCC excision repair 8, CSA ubiquitin ligase complex subunit) | Vehicle | OCI-C5x (clear cell) | 2 | 75.1 | active |
| ERCC8 (ERCC excision repair 8, CSA ubiquitin ligase complex subunit) | Vehicle | OCI-C5x (clear cell) | 3 | 62 | active |
| ERCC8 (ERCC excision repair 8, CSA ubiquitin ligase complex subunit) | Vehicle | OCI-P5x (serous) | 1 | 76.6 | active |
| ERCC8 (ERCC excision repair 8, CSA ubiquitin ligase complex subunit) | Vehicle | OCI-P5x (serous) | 2 | 82.6 | inactive |
| ERCC8 (ERCC excision repair 8, CSA ubiquitin ligase complex subunit) | Vehicle | OCI-P5x (serous) | 3 | 82.6 | inactive |
